According to PMC8079276:
Results are given in words; binding and its absence hold for the method and conditions named. In cells and extracts the contact can be indirect. A yes stands for co-enrichment or nearness to the bait. Other partners may have been found. Where a sequence is shown, tags or fusion partners need not be part of it.

B1: asparagine synthetase (protein, UniProt Q61024 1-561)
chain: MCGIWALFGSDDCLSVQCLSAMKIAHRGPDAFRFENVNGYTNCCFGFHRLAVVDPLFGMQPIRVRKYPYLWLCYNGEIYNHKALQQRFEFEYQTNVDGEIILHLYDKGGIEKTICMLDGVFAFILLDTANKKVFLGRDTYGVRPLFKAMTEDGFLAVCSEAKGLVSLKHSTTPFLKVEPFLPGHYEVLDLKPNGKVASVEMVKYHHCTDEPLHAIYDSVEKLFPGFDLETVKNNLRILFDNAIKKRLMTDRRIGCLLSGGLDSSLVAASLLKQLKEAQVQYPLQTFAIGMEDSPDLLAARKVANYIGSEHHEVLFNSEEGIQALDEVIFSLETYDITTVRASVGMYLISKYIRKNTDSVVIFSGEGSDELTQGYIYFHKAPSPEKAEEESERLLKELYLFDVLRADRTTAAHGLELRVPFLDHRFSSYYLSLPPDMRIPKNGIEKHLLRETFEDCNLLPKEILWRPKEAFSDGITSVKNSWFKILQDYVEHQVDDEMMSAASQKFPFNTPKTKEGYFYRQIFERHYPGRADWLTHYWMPKWINATDPSARTLTHYKSAAKA
B2: ATPase family AAA domain–containing protein 2 (protein, UniProt Q8CDM1 1-1040)
chain: MSLLKMRRHAIHSSDSTSSSSSEDDCFERRTKRNRNRAINRCLPLNFRKDEIRGIYKDRMKIGASLADVDPMQLDTSVRFDSVGGLSSHIAALKEMVVFPLLYPEVFEKFKIQPPRGCLFYGPPGTGKTLVARALANECSRGDKRVAFFMRKGADCLSKWVGESERQLRLLFDQAYQMRPAIIFFDEIDGLAPVRSSRQDQIHSSIVSTLLALMDGLDSRGEIVVIGATNRLDSIDPALRRPGRFDREFLFSLPDKNARKEILKIHTRDWNPKPVDMFLEELAEHCVGYCGADIKSICAEAALCALRRRYPQIYTTSEKLQLDLSSITISAKDFEAALQKIRPASQRAVTSPGQALSAIVKPLLQNTVHRILDALQKVFPHVEVGTNKSLNSDVSCPFLESDLAYSDDDTPSVYENGLSQKENLNFLHLNRNACYQPMSFRPRLLIVGEPGFGQSSHLAPAVIHALEKFTVYTLDIPVLFGISTTSPEEACSQMIREAKRTAPSIVYVPHIHLWWEIVGPTLKATFTTLLQTIPSFAPVLLLATSEKPYSALPEEVQELFTHDYGEIFNVQLPDKEERTKFFEDLILKQASKPPVSQKKAVLQALEVLPVAPPPEPRPLTAEEVKRLEEQEEDTFRELRIFLRNVTHRLAIDKRFRVFTKPVDPDEVPDYVTVIKQPMDLSSVISKIDLHKYLTVKDYLKDIDLICSNALEYNPDRDPGDRLIRHRACALRDTAYAIIKEELDEDFEQLCEEIQESRKKRGCSSSKYAPSYYHVMPKQNSPPVGDKKPDQEQNEKLKVPCTPVACSTPAQLKRKFHKKSKWHVGTKIKRRKISQAKDNSLNAMNSSSRSDTEDSQHTHAEHTEPGNTDESSVEESDKQNRLESNIDLKNNSSSSNIENELEEPKETTEGTELRKDRIVCRGDASASQVTDIPEDSESKEMDFLRMTLARGSQVEQQELISMEQALAILSQPTPSLVLDHKQLTNILKTVVKKSQKYNIFQLENLYAVISQCIYEHRRDYDKTALVQKMEQAVENFNCSRS
B3: ferrochelatase (protein, UniProt P22315 54-422)
chain: TTKPQAQPERRKPKTGILMLNMGGPETLGEVQDFLQRLFLDRDLMTLPIQNKLAPFIAKRRTPKIQEQYRRIGGGSPIKMWTSKQGEGMVKLLDELSPATAPHKYYIGFRYVHPLTEEAIEEMERDGLERAIAFTQYPQYSCSTTGSSLNAIYRYYNEVGQKPTMKWSTIDRWPTHPLLIQCFADHILKELNHFPEEKRSEVVILFSAHSLPMSVVNRGDPYPQEVGATVHKVMEKLGYPNPYRLVWQSKVGPVPWLGPQTDEAIKGLCERGRKNILLVPIAFTSDHIETLYELDIEYSQVLAQKCGAENIRRAESLNGNPLFSKALADLVHSHIQSNKLCSTQLSLNCPLCVNPVCRKTKSFFTSQQL
B4: Aimp1 (protein, UniProt P31230 1-310)
chain: MATNDAVLKRLEQKGAEADQIIEYLKQQVALLKEKAILQATMREEKKLRVENAKLKKEIEELKQELILAEIHNGVEQVRVRLSTPLQTNCTASESVVQSPSVATTASPATKEQIKAGEEKKVKEKTEKKGEKKEKQQSAAASTDSKPIDASRLDLRIGCIVTAKKHPDADSLYVEEVDVGEAAPRTVVSGLVNHVPLEQMQNRMVVLLCNLKPAKMRGVLSQAMVMCASSPEKVEILAPPNGSVPGDRITFDAFPGEPDKELNPKKKIWEQIQPDLHTNAECVATYKGAPFEVKGKGVCRAQTMANSGIK
B5: phosphoenolpyruvate carboxykinase 2 (protein, UniProt Q8BH04 33-640)
chain: LSGDMSQLPAGVRDFVARSAHLCQPEGIHICDGTEAENTAILALLEEQGLIRKLPKYKNCWLARTDPKDVARVESKTVIVTPSQRDTVPLLAGGARGQLGNWMSPDEFQRAVDERFPGCMQGRIMYVLPFSMGPVGSPLSRIGVQLTDSAYVVASMRIMTRLGTPVLQALGDGDFIKCLHSVGQPLTGHGDPVGQWPCNPEKTLIGHVPDQREIVSFGSGYGGNSLLGKKCFALRIASRLARDEGWLAEHMLILGITNPAGKKRYVAAAFPSACGKTNLAMMRPALPGWKVECVGDDIAWMRFDSEGQLRAINPENGFFGVAPGTSAATNPNAMATIQSNTLFTNVAETSDGGVYWEGIDQPLPPGVTITSWLGKPWKPGDKEPCAHPNSRFCVPARQCPIMDPAWEAPEGVPIDAIIFGGRRPKGVPLVYEAFNWRHGVFVGSAMRSESTAAAEHKGKTIMHDPFAMRPFFGYNFGRYLEHWLSMEGQKGARLPRIFHVNWFRRDEAGRFLWPGFGENARVLDWICRRLEGEDSAQETPIGLVPKEGALDLSGLSAVDTSQLFSIPKDFWEQEVRDIRGYLTEQVNQDLPKEVLAELEALEGRVQKM
B6: tyrosine-protein phosphatase nonreceptor type 14 (protein, UniProt Q62130 1-1189)
chain: MPFGLKLRRTRRYNVLSKNCFVTRIRLLDSNVIECTLSVESTGQECLEAVAQRLELRETHYFGLWFLSKSQQARWVELEKPLKKHLDKFANEPLLFFGVMFYVPNVSRLQQEATRYQYYLQVKKDVLEGRLRCSLEQVIRLAGLAVQADFGDYNQFDSQEFLREYVLFPMDLAMEEAALEELTQKVAQEHKAHSGILPAEAELMYINEVERLDGFGQEIFPVKDSHGNSVHLGIFFMGIFVRNRVGRQAVIYRWNDIGSVTHSKAAILLELIDKEETALFHTDDIENAKYISRLFTTRHKFYKQNKICTEQSNSPPPIRRQPTWSRSSLPRQQPYILPPMHVQCSEHYSETHTSQDSIFPGNEEALYCRSHNSLDLNYLNGTVTNGSVCSVHSVNSLSCSQSFIQASPVSSNLSIPGSDIMRADYIPSHRHSTIIVPSYRPTPDYETVMRQMKRGLMHADSQSRSLRNLNIINTHAYNQPEELVYSQPEMRERHPYTVPYAHQGCYGHKLVSPSDQMNPQNCAMPIKPGASSISHTVSTPELANMQLQGAQHYSTAHMLKNYLFRPPPPYPRPRPATSTPDLASHRHKYVSGSSPDLVTRKVQLSVKTFQEDSSPVVHQSLQEVSEPLTATKHHGGGGGTVNKRHSLEVMNSMVRGMEAMTLKSLNIPMARRNTLREQGPSEETGGHEVHGLPQYHHKKTFSDATMLIHSSESEEEEETLEAAPQVPVLREKVEYSAQLQAALARIPNRPPPEYPGPRKSVSNGALRQDQGTPLPAMARCRVLRHGPSKALSVSRAEQLAVNGASLGPSISEPDLTSVKERVKKEPVKERPVSEMFSLEDSIIEREMMIRNLEKQKMTGPQAQKRPLMLAALNGLSVARVSGREDGHHDATRVPIDERLRALKKKLEDGMVFTEYEQIPNKKANGVFSTATLPENAERSRIREVVPYEENRVELIPTKENNTGYINASHIKVVVGGSEWHYIATQGPLPHTCHDFWQMVWEQGVNVIAMVTAEEEGGRTKSHRYWPKLGSKHSSATYGKFKVTTKFRTDSGCYATTGLKVKHLLSGQERTVWHLQYTDWPHHGCPEDVQGFLSYLEEIQSVRRHTNSVLEGIRTRHPPIVVHCSAGVGRTGVVILSELMIYCLEHNEKVEVPTMLRFLREQRMFMIQTIAQYKFVYQVLVQFLQNSRLI

target: T1, UDP-N-acetylglucosamine-peptide N-acetylglucosaminyltransferase (mouse (endogenous in MEFs)) (UniProt Q8CGY8); experiment: affinity purification with mass spectrometry; endogenous OGT immunoprecipitated (antibody AL24, protein G magnetic beads, TCL buffer: 50 mM Tris HCl, 150 mM NaCl, pH 7.5, 1% NP-40, 2 mM EDTA) from a 1:1:1 mix of SILAC-labelled lysates of WT, H2O2-treated (2.5 mM, 1.5 h) and OGT-null MEFs, precleared with rabbit IgG; in-gel trypsin digestion, LC-MS/MS; interactor if log2 WT or H2O2/null >=1 in 2 or more replicates
T1 sequence: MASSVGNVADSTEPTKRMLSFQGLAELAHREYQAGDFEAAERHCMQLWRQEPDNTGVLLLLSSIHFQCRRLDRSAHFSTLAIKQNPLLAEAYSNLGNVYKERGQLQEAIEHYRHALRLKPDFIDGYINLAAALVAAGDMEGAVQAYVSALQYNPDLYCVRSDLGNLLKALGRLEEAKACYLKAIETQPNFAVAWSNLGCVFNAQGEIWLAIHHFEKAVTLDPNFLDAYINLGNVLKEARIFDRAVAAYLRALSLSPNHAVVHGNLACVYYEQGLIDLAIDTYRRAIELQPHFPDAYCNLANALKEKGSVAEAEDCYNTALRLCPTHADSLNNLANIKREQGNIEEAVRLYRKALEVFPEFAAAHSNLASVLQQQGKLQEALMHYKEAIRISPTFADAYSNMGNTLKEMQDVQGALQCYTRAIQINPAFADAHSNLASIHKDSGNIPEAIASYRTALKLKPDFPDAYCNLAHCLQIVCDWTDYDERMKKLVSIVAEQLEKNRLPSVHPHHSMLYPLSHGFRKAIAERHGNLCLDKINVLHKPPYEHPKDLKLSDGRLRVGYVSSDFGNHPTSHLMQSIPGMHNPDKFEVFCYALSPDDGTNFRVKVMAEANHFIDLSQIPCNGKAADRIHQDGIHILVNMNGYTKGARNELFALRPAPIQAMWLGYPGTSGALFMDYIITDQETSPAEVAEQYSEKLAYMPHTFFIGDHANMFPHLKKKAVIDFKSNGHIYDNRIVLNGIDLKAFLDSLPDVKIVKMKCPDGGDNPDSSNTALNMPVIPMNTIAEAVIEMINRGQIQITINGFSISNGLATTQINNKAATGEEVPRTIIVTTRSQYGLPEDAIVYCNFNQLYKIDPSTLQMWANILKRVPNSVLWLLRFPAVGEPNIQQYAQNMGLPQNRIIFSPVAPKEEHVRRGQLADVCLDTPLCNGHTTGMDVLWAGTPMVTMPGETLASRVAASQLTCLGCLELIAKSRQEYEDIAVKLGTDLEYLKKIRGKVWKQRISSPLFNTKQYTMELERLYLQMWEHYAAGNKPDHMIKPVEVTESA

binding, binds:
B1
B2
B3
B4
B5
B6
